The subject of the assay is L1210 leukemia ip in BDF1 mice, survival T/C. The experiment in a line: NCI In Vivo Anticancer Drug Screen. Data for tumor model L1210 Leukemia (intraperitoneal) in B6D2F1 (BDF1) mice. Conditions: T/C endpoint: mean survival time, higher T/C = longer survival.
Where [1] appears, read: dose: 100.0 mg/kg/injection, schedule: Q04DX002 (ip), vehicle: Klucel (hydroxypropylcellulose) (HPC).
The mark [2] stands for this setting: dose: 400.0 mg/kg/injection, schedule: Q01DX001 (ip), vehicle: carboxymethylcellulose (CMC).
Where [3] appears, read: dose: 200.0 mg/kg/injection, schedule: Q01DX009 (ip), vehicle: saline.
The mark [4] stands for this setting: dose: 400.0 mg/kg/injection, schedule: Q01DX009 (ip), vehicle: saline.
Setting [5] is: dose: 400.0 mg/kg/injection, schedule: Q01DX001 (ip), vehicle: saline.
[6] abbreviates: dose: 200.0 mg/kg/injection, schedule: Q04DX003 (ip), vehicle: saline with Tween-80.
[7] abbreviates: dose: 400.0 mg/kg/injection, schedule: Q04DX003 (ip), vehicle: saline with Tween-80.
Where [8] appears, read: dose: 200.0 mg/kg/injection, schedule: Q01DX001 (ip), vehicle: carboxymethylcellulose (CMC).
[9] abbreviates: dose: 400.0 mg/kg/injection, schedule: Q01DX009 (ip), vehicle: Klucel (hydroxypropylcellulose) (HPC).
Setting [10] is: dose: 400.0 mg/kg/injection, schedule: Q01DX001 (ip), vehicle: saline with Tween-80.

The list is a part of this screen's results and no random one: it is rich in T/C values a quarter to a half above the control, in often repeated tests (any T/C) and in doses without a T/C. Further doses and runs are listed elsewhere. T/C gives the treated animals as a percentage of the vehicle group. Some entries give survivors of the animals treated and no T/C: the source files T/C as zero there, which appears to mark a toxic dose or a test without result, not a measured value. Some doses without a T/C left all or most animals alive at the check, yet need not have been tolerated: the source hardly ever lists a survival T/C far under the control, and the zero likely stands for such cases as well. Survivors were counted at the toxicity check, usually on the fifth day, unless a day is given; later deaths do not show. Schedules are NCI's codes, taken here to give the interval after Q, in days (D) or hours (H), and the number of doses after X. Some schedule codes hold Z or #, which are not explained here. Where survival is the endpoint, this PubChem deposit counts one and a half times the control or more as active, and values a quarter to a half above the control carry no call in these data; other NCI protocols may use other cut-offs.

On to `Cc1ccc(C(/C=C/c2ccccc2)=N\N=C(N)N)cc1`, for which the survivor count runs as follows: (dose: 120.0 mg/kg/injection, schedule: Q01DX Z (ip), vehicle: methylcellulose (MC)) 3 of 6; (dose: 360.0 mg/kg/injection, schedule: Q01DX Z (oral), vehicle: methylcellulose (MC)) 4 of 6.
Turning to `CC(=O)Oc1ccc2c(c1)C(=O)CCC=C2`, for the setting “dose: 100.0 mg/kg/injection, schedule: Q01DX009 (ip), vehicle: other”, the survivor count was 3 of 3.
Take `Cc1cc2ccccc2c(N)c1C#N`: the survivor count is 6 of 6 (dose: 200.0 mg/kg/injection, schedule: Q04DX002 (ip), vehicle: saline with Tween-80) and 3 of 3 (dose: 400.0 mg/kg/injection, schedule: Q01DX009 (ip), vehicle: saline with Tween-80).
On to `C=C(Cl)CSCCCS`, for which the survivor count (dose: 400.0 mg/kg/injection, schedule: Q01DX009 (ip), vehicle: acetone) was 0 of 6.
Consider `[C-]#[N+]C(=C\c1ccc(O)cc1)/C(=C/c1ccc(O)cc1)[N+]#[C-]`, for which the survivor count reads like this: under setting [1], 0 of 3; (dose: 200.0 mg/kg/injection, schedule: Q04DX002 (ip), vehicle: Klucel (hydroxypropylcellulose) (HPC)) 3 of 3; (dose: 400.0 mg/kg/injection, schedule: Q04DX002 (ip), vehicle: Klucel (hydroxypropylcellulose) (HPC)) 0 of 3.
As to `NC(=S)N/N=C/c1ccc(Br)s1`, the survivor count under setting [2] is listed as 1 of 4.
As for `CC(C)(C)c1ccc(OCc2cnc[nH]2)cc1`, the survivor count was 3 of 6 (dose: 100.0 mg/kg/injection, schedule: Q01DX009 (ip), vehicle: saline); 0 of 6 under setting [3]; 0 of 6 under setting [4].
On to `C[N+](C)(Cc1ccccc1)/N=C(\[O-])Cc1ccccc1`, for which, under setting [5], the survivor count is recorded as 0 of 6.
For the compound `CCCCCCCCCCCC(=O)[O][Sn]([CH2]CCC)([CH2]CCC)[O]C(=O)CCCCCCCCCCC`, the survivor count is, setting by setting: (dose: 25.0 mg/kg/injection, schedule: Q04DX003 (ip), vehicle: saline with Tween-80) 1 of 3; (dose: 50.0 mg/kg/injection, schedule: Q04DX003 (ip), vehicle: saline with Tween-80) 0 of 3; (dose: 100.0 mg/kg/injection, schedule: Q04DX003 (ip), vehicle: saline with Tween-80) 0 of 3; under setting [6], 0 of 3; under setting [7], 0 of 3.
Consider `CCC1C(CC)N1S(=O)(=O)c1ccccc1` (stereo not drawn), for which the survivor count (dose: 400.0 mg/kg/injection, schedule: Q04DX002 (ip), vehicle: saline with Tween-80) is given as 3 of 3.
With `N#CC1C2CCC(C2)C1CCCNCCCC1C2CCC(C2)C1C#N` (stereo not drawn), the survivor count (dose: 400.0 mg/kg/injection, schedule: Q04DX002 (ip), vehicle: saline) was 3 of 3.
Take `CC(=O)Nc1ccc2c(c1)C[N+](C)(C1CCCCC1)CO2` (stereo not drawn): the survivor count is, setting by setting: (dose: 100.0 mg/kg/injection, schedule: Q01DX015 (ip), vehicle: carboxymethylcellulose (CMC)) 3 of 6; (dose: 200.0 mg/kg/injection, schedule: Q01DX015 (ip), vehicle: carboxymethylcellulose (CMC)) 0 of 6; under setting [6], 2 of 6; under setting [2], 3 of 6.
On to `S=c1nc[nH]c2c1ncn2CN1CCOCC1`, for which the T/C (dose: 50.0 mg/kg/injection, schedule: Q01DX015 (ip), vehicle: saline) is 135 % of control; the T/C (dose: 72.0 mg/kg/injection, schedule: Q01DX009 (ip), vehicle: carboxymethylcellulose (CMC)) is 126 % of control; the T/C (dose: 177.6 mg/kg/injection, schedule: Q01DX001 (ip), vehicle: carboxymethylcellulose (CMC)) was 132 % of control; the T/C under setting [8] was 149 % of control; the T/C (dose: 266.8 mg/kg/injection, schedule: Q01DX001 (ip), vehicle: carboxymethylcellulose (CMC)) was 129 % of control; the T/C under setting [5] was 141 % of control. The survivor count by setting is: under setting [3], 6 of 6; under setting [4], 3 of 6; (dose: 600.0 mg/kg/injection, schedule: Q01DX001 (ip), vehicle: carboxymethylcellulose (CMC)) 1 of 4; (dose: 800.0 mg/kg/injection, schedule: Q01DX009 (ip), vehicle: saline) 0 of 6.
As for `O=C(CCN1CC1)OC1CCCC1`, the survivor count is on record as 6 of 6 (dose: 5.0 mg/kg/injection, schedule: Q01DX009 (ip), vehicle: Klucel (hydroxypropylcellulose) (HPC)); 5 of 6 (dose: 10.0 mg/kg/injection, schedule: Q01DX009 (ip), vehicle: Klucel (hydroxypropylcellulose) (HPC)); 6 of 6 (dose: 20.0 mg/kg/injection, schedule: Q01DX009 (ip), vehicle: Klucel (hydroxypropylcellulose) (HPC)); 0 of 6 (dose: 40.0 mg/kg/injection, schedule: Q01DX009 (ip), vehicle: Klucel (hydroxypropylcellulose) (HPC)); 0 of 6 (dose: 80.0 mg/kg/injection, schedule: Q01DX009 (ip), vehicle: Klucel (hydroxypropylcellulose) (HPC)); 2 of 6 (dose: 200.0 mg/kg/injection, schedule: Q04DX003 (ip), vehicle: Klucel (hydroxypropylcellulose) (HPC)). For the same compound, the survivor count (dose: 400.0 mg/kg/injection, schedule: Q04DX003 (ip), vehicle: Klucel (hydroxypropylcellulose) (HPC)) is 0 of 6.
On to `COC(=O)c1ccccc1C1=C(O)C(=O)C(c2ccccc2C(=O)OC)=C(O)C1=O`, for which, under setting [9], the survivor count was 0 of 6.
Regarding `O=C(NS(=O)(=O)c1ccc(Cl)c(Cl)c1)NS(=O)(=O)c1ccc(Cl)c(Cl)c1`, under setting [10], the survivor count is 3 of 6.
In the case of `Cc1cccc(Nc2nc(N)nc(N)c2N)c1`, the survivor count runs as follows: (dose: 100.0 mg/kg/injection, schedule: Q01DX Z (ip), vehicle: saline) 4 of 6; (dose: 200.0 mg/kg/injection, schedule: Q01DX Z (ip), vehicle: saline) 0 of 6.
`CCCCCC(CN(C)C)C(O)CCc1ccc(Cl)c(Cl)c1` (stereo not drawn): the survivor count under setting [1] is listed as 3 of 3.
`CCC(CC)NC(CC)CO` (stereo not drawn): the survivor count (dose: 300.0 mg/kg/injection, schedule: Q01DX001 (ip), vehicle: carboxymethylcellulose (CMC)) was 0 of 6.
With `COc1c2c(c(OC)c3ccccc13)C(=O)c1ccccc1C2=O`, the survivor count (dose: 400.0 mg/kg/injection, schedule: Q01DX005 (ip), vehicle: saline) is recorded as 2 of 4.
`CCCCC1(CC)C(=O)NC(=S)NC1=O`: under setting [5], the survivor count is 0 of 6.
Turning to `CC(C)(C)OC(=O)NC(CSC(c1ccccc1)(c1ccccc1)c1ccccc1)C(=O)NC(Cc1ccccc1)C(=O)NCC(=O)O` (stereo not drawn), the survivor count (dose: 300.0 mg/kg/injection, schedule: Q01DX001 (ip), vehicle: saline) was 3 of 6.
As for `CCCCC(C=NCC(CCCC)(CCN(C)C)c1cccc2ccccc12)(CCN(C)C)c1cccc2ccccc12` (stereo not drawn), the survivor count by setting is: (dose: 100.0 mg/kg/injection, schedule: Q01DX009 (ip), vehicle: Klucel (hydroxypropylcellulose) (HPC)) 0 of 6; (dose: 200.0 mg/kg/injection, schedule: Q01DX009 (ip), vehicle: Klucel (hydroxypropylcellulose) (HPC)) 0 of 6; under setting [9], 0 of 6.
As for `COc1ccc(C)cc1NC(=S)NC(=O)c1cccc([N+](=O)[O-])c1`, the survivor count under setting [10] was 4 of 6.
Regarding `Cc1cc(C(=O)CC(C)C(=O)O)cc2c1sc1ccccc12` (stereo not drawn), under setting [5], the survivor count is listed as 4 of 4.
Regarding `O=C1NC(=S)S/C1=C/c1ccc(/C=C2/SC(=S)NC2=O)cc1`, the survivor count under setting [8] is recorded as 4 of 4 and the survivor count under setting [2] was 4 of 4.
Turning to `COC(=O)C(CCCCN=Cc1ccccc1O)N=Cc1ccccc1O.[Ni]` (stereo not drawn), the survivor count under setting [7] is 0 of 6.
Take `N#C/C(=C\c1ccccc1Cl)c1cccc(Cl)c1`: the survivor count by setting is: (dose: 200.0 mg/kg/injection, schedule: Q01DX009 (ip), vehicle: other) 6 of 6; (dose: 400.0 mg/kg/injection, schedule: Q01DX009 (ip), vehicle: other) 6 of 6.
Turning to `Nc1cnccc1NCCN1CCN(c2ccccc2)CC1`, the survivor count reads like this: (dose: 200.0 mg/kg/injection, schedule: Q01DX001 (ip), vehicle: saline) 0 of 4; under setting [5], 0 of 4.

Values taken from PubChem BioAssay AID248 (DTP/NCI, 2004).
